Results are given in words; binding and its absence hold for the method and conditions named. Binding seen in cells or lysates may run through a third protein. Some binding calls cover weakened binding; strength is not graded here.
Target: GFP-ROP1 (Arabidopsis) (UniProt P92978)
Test: co-IP; total protein of Arabidopsis pollen tubes in NEB buffer (20 mM HEPES pH 7.5, 40 mM KCl, 1 mM EDTA, 1% Triton X-100); GFP-trap or RFP-trap agarose beads, 3 h at 4 C; endogenous REN4 detected by anti-REN4 immunoblot

Chains of the proteins cited; added tags and fusions are not shown.
UniProt P92978: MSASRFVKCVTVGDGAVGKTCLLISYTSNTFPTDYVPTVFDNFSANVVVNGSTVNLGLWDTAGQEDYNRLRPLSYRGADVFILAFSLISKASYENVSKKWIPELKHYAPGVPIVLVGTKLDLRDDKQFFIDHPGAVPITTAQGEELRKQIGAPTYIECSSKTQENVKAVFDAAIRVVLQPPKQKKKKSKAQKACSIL

B1: REN4 (ROP1 enhancer 4), endogenous (protein, UniProt O48716 1-465)
chain: MFTEADSIPRAKYANMMHSDPNLSSTMTQQTEEEYGIRNSSASAVGTGMYDRMSCEGSPMMMSPWNQATPFTQTQWSTVEENLPQNGLIGSLVREEGHIYSLAATKDLLYTGSDSKNIRVWKNLKEFSAFKCNSGLVKAIVISGEKIFTGHQDGKIRVWKVSPKNQSLHKRSGTLPTLKDIFKASLKPRNYVEVKKHRTALWIKHADAVSCLSLNDEQGLLYSASWDRTIKVWRIADSKCLESIPAHDDAVNSVVSTTEAIVFSGSADGTVKAWKRDQQGKYTKHTLMQTLTKQESAVTALAVSKNGAAVYFGSSDGLVNFWEREKQLNYGGILKGHKLAVLCLEVAGSLVFSGSADKTICVWKRDGNIHTCLSVLTGHTGPVKCLAVEADREASERRDKKWIVYSGSLDKSVKVWGVSESFIDMNQMSMMQQQQQQHVISHSEPFMSDGSFSSSAGGASSHRRH
**Q.** For B1, which binding is on record?
**A.** binds
